Experimental data as given in patent US10632165B2, “Beneficial effect of Bidens pilosa on fat decrease and muscle increase” (Academia Sinica, priority 2016, dated 2020).
At least one structure is not confirmed: it was looked up by name or label, or the drawing left a doubt.

Tests used:
3T3-L1 pre-adipocytes = assay: Differentiation of 3T3-L1 pre-adipocytes, Oil Red O staining and lipid quantification; type: cell-based, mouse; details: 3T3-L1, inducer (Dex, IBMX and insulin) plus test substance
Protocol: (§1) The MTT assay of 3T3-L1 adipocytes grown in the medium containing vehicle or cytopiloyne at the indicated concentration for 24 hr is shown (A). 3T3-L1 pre-adipocytes were initiated for differentiation with DMSO (vehicle) and a mixture of Dex, IBMX and insulin for 2 days (B). The differentiating cells were then incubated with vehicle (inducer), rosiglitazone (RSG) or different doses of cytopiloyne until complete differentiation occurred. Lipid droplets from all the cells were visualized by Oil-Red-O staining and examined by light microscopy (left panel). Scale bars=10 μm. Oil Red O inside the cells was extracted and quantified at 520 nm (right panel). Expression of PPAR-γ and C/EBPα in 3T3-L1 cells treated with inducer in the presence of rosiglitazone (RSG) or cytopiloyne was analyzed by Western blot (C). The relative expression level (REL) of aP2 and adiponectin in 3T3-L1 cells was measured using real-time PCR (D). Effect of cytopiloyne on differentiation of human SGBS cells. The cells were incubated with DMEM/F12 medium (vehicle) or differentiation medium for 3 days (E). […]
The differentiated adipocytes were washed with phosphate-buffered saline (PBS) and fixed with 4% formaldehyde for 15 min. […] For lipid quantification, isopropanol was used to extract the intracellular oil red O, followed by measurement at 520 nm using a microplate reader.

C/EBPα = C/EBPα expression in 3T3-L1 cells (Western blot); type: cell-based, mouse; details: inducer plus test substance
Protocol: as §1, with “(E). The cells were then incubated with vehicle (inducer) and cytopiloyne (25 μM) until a complete differentiation.” for “(E).”
Western Blot. […] After developing with ECL substrate (GE Healthcare, UK), the membranes were detected using FLUORCHEM™ HD2 system (Bio-Techne, Minneapolis, Minn., USA).

Structure (SMILES): CN(CCOc1ccc(CC2SC(=O)NC2=O)cc1)c1ccccn1 (centres unmarked) [Rosiglitazone, rosiglitazone, reference compound]
- production of lipid droplets in adipocytes (3T3-L1 pre-adipocytes): enhanced this production
- C/EBPα expression up-regulated by the inducer (C/EBPα): slightly increased this up-regulation
